Some of these results come from one statement about several compounds together.
Biological target: human NaV 1.8 (Homo sapiens, UniProt Q9Y5Y9)
Assay: E-VIPR Assay Detecting and Measuring NaV Inhibition Properties
Format: cell-based
Settings: HEK cells expressing a truncated form of human NaV 1.8 with full channel activity; electrical stimulation, membrane-potential FRET dyes; 30 minutes compound incubation; read-out: measured IC50 value in the E-VIPR Assay

Chains of the proteins cited; added tags and fusions are not shown. Residues count along the entry.
UniProt Q9Y5Y9, 126-1722 limits assumed: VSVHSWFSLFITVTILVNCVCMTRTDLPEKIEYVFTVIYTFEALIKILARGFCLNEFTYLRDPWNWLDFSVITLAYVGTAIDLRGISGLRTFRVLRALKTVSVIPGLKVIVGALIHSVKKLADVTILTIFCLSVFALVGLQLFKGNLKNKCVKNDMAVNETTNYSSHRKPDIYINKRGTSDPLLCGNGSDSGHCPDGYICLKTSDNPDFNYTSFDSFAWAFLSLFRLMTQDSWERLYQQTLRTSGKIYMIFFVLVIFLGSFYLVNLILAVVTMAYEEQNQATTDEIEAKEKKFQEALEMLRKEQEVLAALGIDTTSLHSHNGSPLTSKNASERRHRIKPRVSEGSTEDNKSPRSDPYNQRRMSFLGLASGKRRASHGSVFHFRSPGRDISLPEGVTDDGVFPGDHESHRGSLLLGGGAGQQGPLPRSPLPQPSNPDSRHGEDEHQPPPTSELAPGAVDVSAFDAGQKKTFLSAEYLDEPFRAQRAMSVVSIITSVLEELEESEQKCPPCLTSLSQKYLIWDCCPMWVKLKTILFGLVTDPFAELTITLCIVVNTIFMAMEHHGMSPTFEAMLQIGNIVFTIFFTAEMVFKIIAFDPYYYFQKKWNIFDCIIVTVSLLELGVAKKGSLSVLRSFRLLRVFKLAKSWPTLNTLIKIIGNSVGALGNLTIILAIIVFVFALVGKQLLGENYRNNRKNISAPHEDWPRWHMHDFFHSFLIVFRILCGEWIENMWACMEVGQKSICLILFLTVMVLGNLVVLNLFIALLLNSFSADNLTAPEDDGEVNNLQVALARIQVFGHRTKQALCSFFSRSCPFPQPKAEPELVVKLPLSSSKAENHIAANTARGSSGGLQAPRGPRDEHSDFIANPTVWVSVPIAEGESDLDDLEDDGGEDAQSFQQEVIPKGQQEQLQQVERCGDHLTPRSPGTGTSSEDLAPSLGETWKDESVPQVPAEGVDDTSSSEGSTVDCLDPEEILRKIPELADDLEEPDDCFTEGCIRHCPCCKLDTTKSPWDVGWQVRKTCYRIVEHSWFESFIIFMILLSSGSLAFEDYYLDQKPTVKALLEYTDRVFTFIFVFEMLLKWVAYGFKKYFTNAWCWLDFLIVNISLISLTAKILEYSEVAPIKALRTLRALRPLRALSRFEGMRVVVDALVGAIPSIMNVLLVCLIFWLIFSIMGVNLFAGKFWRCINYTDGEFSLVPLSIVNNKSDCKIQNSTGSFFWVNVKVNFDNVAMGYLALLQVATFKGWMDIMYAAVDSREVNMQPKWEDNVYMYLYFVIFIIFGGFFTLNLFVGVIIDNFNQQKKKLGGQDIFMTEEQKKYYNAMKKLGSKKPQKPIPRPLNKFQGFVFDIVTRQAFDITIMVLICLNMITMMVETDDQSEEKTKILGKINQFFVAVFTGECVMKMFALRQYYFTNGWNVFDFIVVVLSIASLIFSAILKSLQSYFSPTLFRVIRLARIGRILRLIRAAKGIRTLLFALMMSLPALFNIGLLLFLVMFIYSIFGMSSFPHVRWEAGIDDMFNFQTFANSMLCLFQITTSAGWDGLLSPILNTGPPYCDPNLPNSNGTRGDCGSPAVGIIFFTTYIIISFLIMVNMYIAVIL

IC50, < 0.5 µM:
CCOC(=O)c1c(-c2cc3ccccc3nc2N2CCC(C(F)(F)F)CC2)[nH]c(C)c(OC)c1=O [Compound 232, ethyl 5-methoxy-6-methyl-4-oxo-2-[2-[4-(trifluoromethyl)-1-piperidyl]-3-quinolyl]-1H-pyridine-3-carboxylate]
CCOC(=O)c1c(-c2cc3ccccc3nc2N2CCCCCC2)[nH]c(C)c(OC)c1=O [Compound 233, ethyl 2-[2-(azepan-1-yl)-3-quinolyl]-5-methoxy-6-methyl-4-oxo-1H-pyridine-3-carboxylate]
CCOC(=O)c1c(-c2cc(C(F)(F)F)c(C)nc2N2CCCC(F)(F)CC2)[nH]c(C)c(OC)c1=O [Compound 234, ethyl 2-[2-(4,4-difluoroazepan-1-yl)-6-methyl-5-(trifluoromethyl)-3-pyridyl]-5-methoxy-6-methyl-4-oxo-1H-pyridine-3-carboxylate]
CCOC(=O)c1c(-c2cc3ccccc3nc2N2C[C@@H]3CC(F)(F)C[C@@H]3C2)[nH]c(C)c(OC)c1=O [Compound 235, ethyl 2-[2-[(3aR,6aS)-5,5-difluoro-1,3,3a,4,6,6a-hexahydrocyclopenta[c]pyrrol-2-yl]-3-quinolyl]-5-methoxy-6-methyl-4-oxo-1H-pyridine-3-carboxylate]
CCOC(=O)c1c(-c2cc3ccccc3nc2N2CC3C(C2)C3(F)F)[nH]c(C)c(OC)c1=O (stereo not drawn) [Compound 236, ethyl 2-[2-(6,6-difluoro-3-azabicyclo[3.1.0]hexan-3-yl)-3-quinolyl]-5-methoxy-6-methyl-4-oxo-1H-pyridine-3-carboxylate]
CCOC(=O)c1c(-c2cc3ccccc3nc2N2C[C@H]3CCC[C@H]3C2)[nH]c(C)c(OC)c1=O [Compound 237, ethyl 2-[2-[(3aR,6aS)-3,3a,4,5,6,6a-hexahydro-1H-cyclopenta[c]pyrrol-2-yl]-3-quinolyl]-5-methoxy-6-methyl-4-oxo-1H-pyridine-3-carboxylate]
CCOC(=O)c1c(-c2cc3ccccc3nc2N2C[C@@H](C)[C@@H](C)C2)[nH]c(C)c(OC)c1=O [Compound 239, ethyl 2-[2-[(3S,4R)-3,4-dimethylpyrrolidin-1-yl]-3-quinolyl]-5-methoxy-6-methyl-4-oxo-1H-pyridine-3-carboxylate]
CCOC(=O)c1c(-c2cc3ccccc3nc2N2CCC(C(F)(F)F)C2)[nH]c(C)c(OC)c1=O (stereo not drawn) [Compound 240, ethyl 5-methoxy-6-methyl-4-oxo-2-[2-[3-(trifluoromethyl)pyrrolidin-1-yl]-3-quinolyl]-1H-pyridine-3-carboxylate]
CCOC(=O)c1c(-c2cc3ccccc3nc2N2CC(OC)C(C(F)(F)F)C2)[nH]c(C)c(OC)c1=O (stereo not drawn) [Compound 241, ethyl 5-methoxy-2-[2-[3-methoxy-4-(trifluoromethyl)pyrrolidin-1-yl]-3-quinolyl]-6-methyl-4-oxo-1H-pyridine-3-carboxylate]
CCOC(=O)c1c(-c2cc3ccccc3nc2N2C[C@H](C)[C@H](OC)C2)[nH]c(C)c(OC)c1=O [Compound 243, ethyl 5-methoxy-2-[2-[(3S,4S)-3-methoxy-4-methyl-pyrrolidin-1-yl]-3-quinolyl]-6-methyl-4-oxo-1H-pyridine-3-carboxylate]
CCOC(=O)c1c(-c2cc3ccccc3nc2N2CCC3(CC2)CC3)[nH]c(C)c(OC)c1=O [Compound 245, ethyl 2-[2-(6-azaspiro[2.5]octan-6-yl)-3-quinolyl]-5-methoxy-6-methyl-4-oxo-1H-pyridine-3-carboxylate]
CCOC(=O)c1c(-c2cc3ccccc3nc2N2CCC(C)(C)CC2)[nH]c(C)c(OC)c1=O [Compound 246, ethyl 2-[2-(4,4-dimethyl-1-piperidyl)-3-quinolyl]-5-methoxy-6-methyl-4-oxo-1H-pyridine-3-carboxylate]
CCOC(=O)c1c(-c2cc3ccccc3nc2N2CC3CCCCC3C2)[nH]c(C)c(OC)c1=O (stereo not drawn) [Compound 247, ethyl 2-[2-(1,3,3a,4,5,6,7,7a-octahydroisoindol-2-yl)-3-quinolyl]-5-methoxy-6-methyl-4-oxo-1H-pyridine-3-carboxylate]
CCOC(=O)c1c(-c2cc3ccccc3nc2N2CC3CCCC(F)(F)C3C2)[nH]c(C)c(OC)c1=O (stereo not drawn) [Compound 248, ethyl 2-[2-(7,7-difluoro-3,3a,4,5,6,7a-hexahydro-1H-isoindol-2-yl)-3-quinolyl]-5-methoxy-6-methyl-4-oxo-1H-pyridine-3-carboxylate]
Cc1cc(=O)cc(-c2cnc(C(F)(F)F)cc2Oc2ccc(F)c(F)c2C)[nH]1 [Compound 254, 2-[4-(3,4-difluoro-2-methyl-phenoxy)-6-(trifluoromethyl)-3-pyridyl]-6-methyl-1H-pyridin-4-one]
Cc1cc(=O)cc(-c2ccc(C(F)(F)F)nc2C2CCC(C(F)(F)F)CC2)[nH]1 (stereo not drawn) [Compound 257, 2-methyl-6-[6-(trifluoromethyl)-2-[4-(trifluoromethyl)cyclohexyl]-3-pyridyl]-1H-pyridin-4-one]
CCOC(=O)c1c(-c2cc3ccccc3nc2Oc2ccc(F)c(F)c2C)[nH]c(C)c(F)c1=O [Compound 258, ethyl 2-[2-(3,4-difluoro-2-methyl-phenoxy)-3-quinolyl]-5-fluoro-6-methyl-4-oxo-1H-pyridine-3-carboxylate]
CCOC(=O)c1c(-c2cc(C)c(C(F)(F)F)nc2N2CCCC(F)(F)CC2)[nH]c(C)c(Cl)c1=O [Compound 259, ethyl 5-chloro-2-[2-(4,4-difluoroazepan-1-yl)-5-methyl-6-(trifluoromethyl)-3-pyridyl]-6-methyl-4-oxo-1H-pyridine-3-carboxylate]
Cc1[nH]c(-c2cc3ccccc3nc2Oc2ccc(F)c(F)c2C)c(Br)c(=O)c1C [Compound 260, 3-bromo-2-[2-(3,4-difluoro-2-methyl-phenoxy)-3-quinolyl]-5,6-dimethyl-1H-pyridin-4-one]
COC(=O)c1c(C)[nH]c(-c2cnc(C3CC(F)(F)C3)cc2C2CCC(C(F)(F)F)CC2)c(Cl)c1=O (stereo not drawn) [Compound 261, methyl 5-chloro-6-[6-(3,3-difluorocyclobutyl)-4-[4-(trifluoromethyl)cyclohexyl]-3-pyridyl]-2-methyl-4-oxo-1H-pyridine-3-carboxylate]
CCOC(=O)c1c(C)[nH]c(-c2cnc(C3CC(F)(F)C3)cc2C2CCC(C(F)(F)F)CC2)c(Cl)c1=O (stereo not drawn) [Compound 262, ethyl 5-chloro-6-[6-(3,3-difluorocyclobutyl)-4-[4-(trifluoromethyl)cyclohexyl]-3-pyridyl]-2-methyl-4-oxo-1H-pyridine-3-carboxylate]
CCOC(=O)c1c(-c2cc3ccccc3nc2Oc2ccc(F)c(F)c2C)[nH]c(C)c(Br)c1=O [Compound 263, ethyl 5-bromo-2-[2-(3,4-difluoro-2-methyl-phenoxy)-3-quinolyl]-6-methyl-4-oxo-1H-pyridine-3-carboxylate]
COc1c(-c2cc3ccccc3nc2Oc2ccc(F)c(F)c2C)[nH]c(C)c(Br)c1=O [Compound 264, 5-bromo-2-[2-(3,4-difluoro-2-methyl-phenoxy)-3-quinolyl]-3-methoxy-6-methyl-1H-pyridin-4-one]
COC(=O)c1c(C)[nH]c(-c2cc3ccccc3nc2Oc2ccc(F)c(F)c2C)c(Br)c1=O [Compound 265, methyl 5-bromo-6-[2-(3,4-difluoro-2-methyl-phenoxy)-3-quinolyl]-2-methyl-4-oxo-1H-pyridine-3-carboxylate]
CCOCc1c(-c2cc3ccccc3nc2Oc2ccc(F)c(F)c2C)[nH]c(C)c(Cl)c1=O [Compound 266, 5-chloro-2-[2-(3,4-difluoro-2-methyl-phenoxy)-3-quinolyl]-3-(ethoxymethyl)-6-methyl-1H-pyridin-4-one]
CCOC(=O)c1c(-c2cc3ccccc3nc2N2CCCC(F)(F)CC2)[nH]c(C)c(Cl)c1=O [Compound 267, ethyl 5-chloro-2-[2-(4,4-difluoroazepan-1-yl)-3-quinolyl]-6-methyl-4-oxo-1H-pyridine-3-carboxylate]
COc1c(-c2cc3ccccc3nc2N2CCCC(F)(F)CC2)[nH]c(C)c(Cl)c1=O [Compound 268, 5-chloro-2-[2-(4,4-difluoroazepan-1-yl)-3-quinolyl]-3-methoxy-6-methyl-1H-pyridin-4-one]
CCOC(=O)c1c(C)[nH]c(-c2cc3ccccc3nc2Oc2ccc(F)c(F)c2C)c(Br)c1=O [Compound 269, ethyl 5-bromo-6-[2-(3,4-difluoro-2-methyl-phenoxy)-3-quinolyl]-2-methyl-4-oxo-1H-pyridine-3-carboxylate]
CCOC(=O)c1c(-c2cc3ccccc3nc2Oc2ccc(F)c(F)c2C)[nH]c(C)c(Cl)c1=O [Compound 270, ethyl 5-chloro-2-[2-(3,4-difluoro-2-methyl-phenoxy)-3-quinolyl]-6-methyl-4-oxo-1H-pyridine-3-carboxylate]
COc1c(Oc2cc(C(F)(F)F)c(Cl)cc2-c2[nH]c(C)c(Cl)c(=O)c2Cl)ccc(F)c1F [Compound 271, 3,5-dichloro-2-[5-chloro-2-(3,4-difluoro-2-methoxy-phenoxy)-4-(trifluoromethyl)phenyl]-6-methyl-1H-pyridin-4-one]
CCOC(=O)c1c(-c2cc3ccccc3nc2Oc2ccc(F)c(F)c2C)[nH]c(C)c(N(C)C)c1=O [Compound 272, ethyl 2-[2-(3,4-difluoro-2-methyl-phenoxy)-3-quinolyl]-5-(dimethylamino)-6-methyl-4-oxo-1H-pyridine-3-carboxylate]
COc1cc(F)ccc1Oc1cc(C(C)(C)C)cc(C)c1-c1cc(=O)cc(CO)[nH]1 [Compound 273, 2-[4-tert-butyl-2-(4-fluoro-2-methoxy-phenoxy)-6-methyl-phenyl]-6-(hydroxymethyl)-1H-pyridin-4-one]
COc1cc(F)ccc1Oc1cc(C(C)(C)C)cc(C)c1-c1cc(=O)cc(CCO)[nH]1 [Compound 275, 2-[4-tert-butyl-2-(4-fluoro-2-methoxy-phenoxy)-6-methyl-phenyl]-6-(2-hydroxyethyl)-1H-pyridin-4-one]

— US20250388543A1, “HETEROARYL COMPOUNDS FOR THE TREATMENT OF PAIN” (VERTEX PHARMACEUTICALS INCORPORATED, priority 2022, published 2025)
